Laboratory results taken from publication doi:10.1101/2025.05.29.656919 (bioRxiv, 2025).

Chains of the proteins cited; added tags and fusions are not shown. Residues count along the entry.
UniProt Q8S926, residues 1-118: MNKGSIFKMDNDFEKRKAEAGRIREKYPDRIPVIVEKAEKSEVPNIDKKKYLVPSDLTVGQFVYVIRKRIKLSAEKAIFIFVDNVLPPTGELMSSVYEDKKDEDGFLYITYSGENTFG

B1: ATG7 (protein, UniProt Q94CD5 1-697)
chain: MAEKETPAIILQFAPLNSSVDEGFWHSFSSLKLDKLGIDDSPISITGFYGPCGHPQVSNHLTLLSESLPLDEQSLIASTSHGNRNKCPVPGILYNTNTVESFNKLDKQSLLKAEANKIWEDIQSGKALEDPSVLPRFLVISFADLKKWSFRYWFAFPAFVLDPPVSLIELKPASEYFSSEEAESVSAACNDWRDSDLTTDVPFFLVSVSSDSKASIRHLKDLEACQGDHQKLLFGFYDPCHLPSNPGWPLRNYLALIRSRWNLETVWFFCYRESRGFADLNLSLVGQASITLSSGESAETVPNSVGWELNKGKRVPRSISLANSMDPTRLAVSAVDLNLKLMRWRALPSLNLNVLSSVKCLLLGAGTLGCQVARTLMGWGIRNITFVDYGKVAMSNPVRQSLYNFEDCLGRGEFKAVAAVKSLKQIFPAMETSGVVMAIPMPGHPISSQEEDSVLGDCKRLSELIESHDAVFLLTDTRESRWLPSLLCANANKIAINAALGFDSYMVMRHGAGPTSLSDDMQNLDINKTNTQRLGCYFCNDVVAPQDSMTDRTLDQQCTVTRPGLAPIAGALAVELLVGVLQHPLGINAKGDNSSLSNTGNNDDSPLGILPHQIRGSVSQFSQITLLGQASNSCTACSETVISEYRERGNSFILEAINHPTYLEDLTGLTELKKAANSFNLDWEDDDTDDDDVAVDL
B2: VDAC2 (voltage-dependent anion channel 2) (protein, UniProt Q9FJX3 1-276)
chain: MSKGPGLFTDIGKKAKDLLTRDYNSDQKFSISTYSASGVALTSTALKKGGVHAADVATQYKYKNALFDVKIDTDSSVLTTVTLTEILPSTKAIASFKVPDYNSAKLEVQYFHDHATVTAAAALKQNPLIDITATLGSPVISFGAEAGYDTTSKTFTKYNAGISVTKPDACLSIILGDKGDSLKASYLHHFDEFKRTAAVGEVYRKFSTNENTITVGGLYAIDHSTAVKAKLNNHGTLGALLQHEVLPRSLVTVSSEIDTKALEKHPRFGLSLALKP
B3: VDAC1 (voltage-dependent anion channel 1) (protein, UniProt Q9SRH5 1-276)
chain: MVKGPGLYTEIGKKARDLLYKDHNSDQKFSITTFSPAGVAITSTGTKKGDLLLGDVAFQSRRKNITTDLKVCTDSTFLITATVDEAAPGLRSIFSFKVPDQNSGKVELQYLHEYAGISTSMGLTQNPTVNFSGVIGSNVLAVGTDVSFDTKSGNFTKINAGLSFTKEDLIASLTVNDKGDLLNASYYHIVNPLFNTAVGAEVSHKLSSKDSTITVGTQHSLDPLTSVKARVNSAGIASALIQHEWKPKSFFTISGEVDTKSIDKSAKVGLALALKP
B4: VDAC3 (voltage-dependent anion channel 3) (protein, UniProt Q9SMX3 1-274)
chain: MVKGPGLYTEIGKKARDLLYRDYQGDQKFSVTTYSSTGVAITTTGTNKGSLFLGDVATQVKNNNFTADVKVSTDSSLLTTLTFDEPAPGLKVIVQAKLPDHKSGKAEVQYFHDYAGISTSVGFTATPIVNFSGVVGTNGLSLGTDVAYNTESGNFKHFNAGFNFTKDDLTASLILNDKGEKLNASYYQIVSPSTVVGAEISHNFTTKENAITVGTQHALDPLTTVKARVNNAGVANALIQHEWRPKSFFTVSGEVDSKAIDKSAKVGIALALKP

Each binder was assayed against yellow fluorescent protein-tagged ATG8e (Arabidopsis) (UniProt Q8S926) (assay: affinity purification with mass spectrometry).

binding, binds:
B1
B2
B3
B4

These are yes or no findings as the source states them, for the method shown. In cells and extracts the contact can be indirect. Here binding means that the protein was enriched with, or labelled near, the bait; the list need not be complete. Tags and fused reporters may be left off the sequences shown.
